These are yes or no findings as the source states them, for the method shown. Binding calls can cover weak binding; strength is not graded here.
Key:
[1] = target: HLA-A*0201 (human); assay: HLA-A2 eluate MS; MCL; 1 means <1 copy/cell; conditions: remark: other sources report otherwise
[2] = target: HLA-A*0201 (human); assay: MHC binding affinity, method and allele not printed there; conditions: remark: other sources report otherwise
[3] = target: HLA-B*0702 (human); assay: HLA-B7 eluate MS; AML1; 1 means <1 copy/cell; conditions: remark: other sources report otherwise
[4] = target: HLA-B*0702 (human); assay: HLA-B7 eluate MS; AML1; 2 means 1-5 copies/cell
[5] = target: HLA-B*0702 (human); assay: HLA-B7 eluate MS; HCL1; 1 means <1 copy/cell; conditions: remark: other sources report otherwise
[6] = target: HLA-B*0702 (human); assay: HLA-B7 eluate MS; JY; 3 means 6-25 copies/cell; conditions: remark: other sources report otherwise
[7] = target: HLA-B*0702 (human); assay: HLA-B7 eluate MS; ALL1; 4 means >25 copies/cell; conditions: remark: other sources report otherwise
[8] = target: HLA-B*0702 (human); assay: HLA-B7 eluate MS; AML1; 2 means 1-5 copies/cell; conditions: remark: other sources report otherwise
[9] = target: HLA-B*0702 (human); assay: HLA-B7 eluate MS; CLL2; 2 means 1-5 copies/cell; conditions: remark: other sources report otherwise
[10] = target: HLA-B*0702 (human); assay: HLA-B7 eluate MS; T Cell; 4 means >25 copies/cell; conditions: remark: other sources report otherwise
[11] = target: HLA-B*0702 (human); assay: HLA-B7 eluate MS; B Cell; 3 means 6-25 copies/cell; conditions: remark: other sources report otherwise
[12] = target: HLA-B*0702 (human); assay: HLA-B7 eluate MS; JY; 4 means >25 copies/cell; conditions: remark: other sources report otherwise
[13] = target: HLA-B*0702 (human); assay: HLA-B7 eluate MS; CLL4; 2 means 1-5 copies/cell; conditions: remark: other sources report otherwise
[14] = target: HLA-B*0702 (human); assay: HLA-B7 eluate MS; AML1; 3 means 6-25 copies/cell; conditions: remark: other sources report otherwise
[15] = target: HLA-B*0702 (human); assay: HLA-B7 eluate MS; CLL2; 3 means 6-25 copies/cell; conditions: remark: other sources report otherwise
[16] = target: HLA-B*0702 (human); assay: HLA-B7 eluate MS; HCL1; 3 means 6-25 copies/cell; conditions: remark: other sources report otherwise
[17] = target: HLA-B*0702 (human); assay: HLA-B7 eluate MS; HCL1; 2 means 1-5 copies/cell; conditions: remark: other sources report otherwise
[18] = target: HLA-A*0201 (human); assay: HLA-A2 eluate MS; CLL1; 1 means <1 copy/cell; conditions: remark: other sources report otherwise
[19] = target: HLA-A*0201 (human); assay: HLA-A2 eluate MS; CLL2; 1 means <1 copy/cell; conditions: remark: other sources report otherwise
[20] = target: HLA-A*0201 (human); assay: MS of HLA-A*0201 (BB7.2) eluate; cultured melanocytes; +++ means 50-500 copies/cell; conditions: remark: other sources report otherwise
[21] = target: HLA-A*0201 (human); assay: HLA-A2 eluate MS; CLL3; 1 means <1 copy/cell; conditions: remark: other sources report otherwise
[22] = target: HLA-A*0201 (human); assay: HLA-A2 eluate MS; CLL4; 1 means <1 copy/cell; conditions: remark: other sources report otherwise
[23] = target: HLA-A*0201 (human); assay: HLA-A2 eluate MS; JY; 2 means 1-5 copies/cell; conditions: remark: other sources report otherwise
[24] = target: HLA-A*0201 (human); assay: HLA-A2 eluate MS; CLL1; 2 means 1-5 copies/cell; conditions: remark: other sources report otherwise
[25] = target: HLA-A*0201 (human); assay: HLA-A2 eluate MS; CLL2; 2 means 1-5 copies/cell; conditions: remark: other sources report otherwise
[26] = target: HLA-A*0201 (human); assay: HLA-A2 eluate MS; AML1; 1 means <1 copy/cell; conditions: remark: other sources report otherwise
[27] = target: HLA-A*0201 (human); assay: HLA-A2 eluate MS; JY; 4 means >25 copies/cell; conditions: remark: other sources report otherwise
[28] = target: HLA-A*0201 (human); assay: HLA-A2 eluate MS; B Cell; 2 means 1-5 copies/cell; conditions: remark: other sources report otherwise
[29] = target: HLA-A*0201 (human); assay: HLA-A2 eluate MS; T Cell; 2 means 1-5 copies/cell; conditions: remark: other sources report otherwise
[30] = target: HLA-B*0702 (human); assay: HLA-B7 eluate MS; AML1; 4 means >25 copies/cell; conditions: remark: other sources report otherwise
[31] = target: HLA-B*0702 (human); assay: HLA-B7 eluate MS; ALL1; 3 means 6-25 copies/cell
[32] = target: HLA-B*0702 (human); assay: HLA-B7 eluate MS; T Cell; 2 means 1-5 copies/cell

Measured: binding

VMIGSPKKV (here or on the partner: phosphoserine at 5) [Tensin-3 (TNS3) phosphopeptide VMIGsPKKV]
binds: [1] | [2]

RPRPVSPSSL (here or on the partner: phosphoserine at 6) [SIK1 phosphopeptide RPRPVsPSSL]
binds: [3]

RPRSPRQNSI (phosphoserine at 4) [ATXN2 phosphopeptide RPRsPRQNSI]
binds: [4]

RPSSLPDL (here or on the partner: phosphoserine at 4) [ARID1B phosphopeptide RPSsLPDL]
binds: [5] | [6] | [7] | [8] | [9] | [10] | [11]

RVRSPTRSP (here or on the partner: phosphoserine at 4) [MLL phosphopeptide RVRsPTRSP]
binds: [8]

TPRSPPLGL (here or on the partner: phosphoserine at 4) [MAP3K11 phosphopeptide TPRsPPLGL]
binds: [12] | [13] | [14] | [15] | [16]

TPRSPPLGLI (here or on the partner: phosphoserine at 4) [MAP3K11 phosphopeptide TPRsPPLGLI]
binds: [12] | [9] | [13] | [17] | [14]

RVASPTSGV (here or on the partner: phosphoserine at 4 (Ser1100 of IRS-2)) [IRS2 phosphopeptide RVApSPTSGV]
binds: [1] | [18] | [19] | [20]

SMTRSPPRV (here or on the partner: phosphothreonine at 3) [SRp46 splicing factor phosphopeptide SMpTRSPPRV]
binds: [20]

KLIDRTESL (here or on the partner: phosphoserine at 8) [LSP1 phosphopeptide KLIDRTEsL]
binds: [21] | [22] | [23] | [24] | [25]

RQASIELPSM (here or on the partner: phosphoserine at 4) [LSP1 phosphopeptide RQAsIELPSM]
binds: [1] | [26] | [21] | [22] | [27] | [24] | [25] | [28] | [29]

SMTRSPPRV (here or on the partner: phosphoserine at 5) [SRSF8 phosphopeptide SMTRsPPRV]
binds: [21]

GPRSASLLSL (here or on the partner: phosphoserine at 9) [GPSM3 phosphopeptide GPRSASLLsL]
binds: [30]

KPPSPSPIEM (phosphoserine at 4) [BCL11A phosphopeptide KPPsPSPIEM]
binds: [31] | [32]

Reference: patent publication US20150224182A1
